We go through one compound from patent US5187277A, “DL-3-[4-[4-(2-pyridyl)-1-piperazinyl]-butyl]-1,8,8-trimethyl-3-az abicyclo[(3]octane-2,4-dione having psychotropic and antiemetic effect” (priority 1990, dated 1993).

The series in a line: in vivo. The note with it: ip.

As for `CN1C(=O)CN=C(c2ccccc2)c2cc(Cl)ccc21` [Diazepame], the LD50 amounted to 110 ± 27 mg/kg.

For orientation: LD50 means the dose expected to kill half of the subjects tested. High values mean a less toxic substance, low ones a more toxic substance.
